# Data from US10407465B2, “Peptides enhancing neuronal outgrowth and application thereof” (Schweitzer Biotech Company Ltd., priority 2014, dated 2019).
# Where a name gives a salt, the structure may show the parent alone.
# What was measured:
# [1] = tested on: Sco-induced amnesia animal model; test: Step-down passive avoidance test, scopolamine-induced memory deficits; assay type: in vivo, Sprague-Dawley rats; details: scopolamine 1.5 mg/kg/day alone; 1 day after footshock; vs control; P<0.05
# Method: Rats were intraperitoneally injected with Sco, C5 peptide and Sco (C5+Sco group), C6 peptide and Sco (C6+Sco group), and DMSO/PBS (negative control group), respectively, as described in Example 6.
# Animals were familiar to the instrument 24 hours before training. Next day rats placed on the elevated platform situated in the center of the floor of the passive avoidance test box and the latency to stepping down recorded. On the third day of the experiment immediately after stepping down, animals received mild electric shock (3V, 3 seconds duration, D.C.) through the grid floor and then returned to their home cages. On the following day (as 24 hours retention interval) rats placed on the platform again while no electric shock was given to them. Latency to step down recorded. If the rat remained on the platform for the 5 minutes, it assigned a maximum score of 300 seconds.
# Both C5 peptide and C6 peptide ameliorate scopolamine-induced memory deficits. Rats were randomly divided into negative control group, Scopolamine only group, (C5+Sco) group and (C6+Sco) group, and rats in the four groups were injected with vehicle (negative control group and scopolamine only group), C5 peptide (54 μg/kg/day, C5+Sco group), and C6 peptide (5.4 μg/kg/day, C6+Sco group), respectively, for 14 consecutive days. […]
# [2] = tested on: Sco-induced amnesia animal model; test: Inhibitory avoidance learning task, scopolamine-induced memory deficits; assay type: in vivo, Sprague-Dawley rats; details: scopolamine 1.5 mg/kg/day i.p. alone; 7 days after footshock; vs control; P<0.05
# Text: Rats were intraperitoneally injected with Sco, C5 peptide and Sco (C5+Sco group), C6 peptide and Sco (C6+Sco group), and DMSO/PBS (negative control group), respectively, as described in Example 5.
# The apparatus consisted of a trough-shaped alley divided by a sliding door that separates an illuminated safety compartment and a dark compartment. A shock generator that produced current was connected to the floor of the dark compartment (UGO Basile, Comerio VA, Italy). The behavioral task, including the training and testing procedures, was recorded between 8:00 AM and 6:00 PM. Before the experiment, the rats were habituated in a dim room for 1 hour so that they could adjust to the environment. In the training phase, a rat was placed at the far end of the illuminated compartment facing away from the door. As the rat turned around, the door shut, and a 1 mA/s footshock was given twice. The rat was then removed from the alley and returned to its cage. At different times after training (1 day and 7 days later), the retention test was given. Rats were tested after 1 day and 7 days in the same manner as in the training, but without receiving a shock. Testing was terminated either when the rat entered the dark chamber or after 600 seconds without entry. […]
smiles,measurement,setting,value
"CN1[C@@H]2C[C@@H](OC(=O)[C@H](CO)c3ccccc3)C[C@H]1[C@@H]1O[C@@H]12 [Sco, Scopolamine hydrochloride]",retention time on the stage,[1],less retention time on the stage
same,retention time in the illuminated chamber,[2],less retention time in the illuminated chamber
